Measurements reported in PubChem BioAssay AID1259424 (University of Nebraska Medical Center, 2018).

Aim: 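Seek colon cancer survival genes behaving like KSR1, using a six-gene signature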 (primary screen)
Cells: human HCT116 colon cancer cells
Reagent: siRNA pool against human genes, 50 nM
Read-out: 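Six signature mRNAs by branched-DNA multiplex assay, scaled to two housekeeping genes and non-targeting median, log2; matched to mean KSR1 knockdown profile by Pearson correlation and euclidean distance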
Scale: mean correlation with KSR1 profile: higher = expression change more like KSR1 knockdown; mean distance from KSR1 profile: higher = expression change less like KSR1 knockdown
The whole screen tested about 14,000 reagents; shown is a random part of them. 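Higher correlation or smaller distance means closer resemblance to KSR1 loss; control wells, including KSR1 knockdowns, recur on many plates.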 Further read-outs or replicates are left out here. No sequences are given here. Not given: the time to read-out.

How did the screen score ERP44?
mean correlation with KSR1 profile: -0.409; mean distance from KSR1 profile: 2.11

What did the screen give for ATOSA?
mean correlation with KSR1 profile: -0.648; mean distance from KSR1 profile: 5.2

What is on record for MBD5?
mean correlation with KSR1 profile: 0.335; mean distance from KSR1 profile: 0.829

With PKD2L2, what does the deposit list?
mean correlation with KSR1 profile: 0.365; mean distance from KSR1 profile: 1.87

For OR4D1, how do the results read?
mean correlation with KSR1 profile: 0.544; mean distance from KSR1 profile: 1.61

What did the screen give for NDUFA3?
mean correlation with KSR1 profile: 0.13; mean distance from KSR1 profile: 0.967

What is on record for TNFSF12?
mean correlation with KSR1 profile: 0.666; mean distance from KSR1 profile: 2.01

Which result is listed for NCOA3?
mean correlation with KSR1 profile: -0.0273; mean distance from KSR1 profile: 2.13

For BRD8, how do the results read?
mean correlation with KSR1 profile: -0.509; mean distance from KSR1 profile: 4.56

Part of the list above in another layout.
gene symbol	mean correlation with KSR1 profile	mean distance from KSR1 profile
NCOA3	-0.0273	2.13
BRD8	-0.509	4.56

The listing continues.
What is on record for FUCA1?
mean correlation with KSR1 profile: -0.58; mean distance from KSR1 profile: 2.96

With TNRC6A, what was measured?
mean correlation with KSR1 profile: -0.261; mean distance from KSR1 profile: 2.12

What is on record for SLC49A3?
mean correlation with KSR1 profile: 0.866; mean distance from KSR1 profile: 0.916

For GABRD, how do the results read?
mean correlation with KSR1 profile: 0.515; mean distance from KSR1 profile: 1.72

For KIF17, how do the results read?
mean correlation with KSR1 profile: -0.323; mean distance from KSR1 profile: 2.14

With PCDHGB2, how do the results read?
mean correlation with KSR1 profile: -0.148; mean distance from KSR1 profile: 1.82

With CHST2, how do the results read?
mean correlation with KSR1 profile: -0.213; mean distance from KSR1 profile: 1.38

Which result is listed for ACSS3?
mean correlation with KSR1 profile: 0.844; mean distance from KSR1 profile: 0.866

What is on record for HAUS2?
mean correlation with KSR1 profile: -0.599; mean distance from KSR1 profile: 2.56

With ARHGEF28, what does the deposit list?
mean correlation with KSR1 profile: -0.368; mean distance from KSR1 profile: 3.11
